Measurements as given in US20170129959A1.
Results are given in words; binding and its absence hold for the method and conditions named. Some binding calls cover weakened binding; strength is not graded here.

Chains of the proteins cited; added tags and fusions are not shown. Lines headed by an entry give the natural chain unless they say otherwise; changes in a name come on top.
UniProt P16871: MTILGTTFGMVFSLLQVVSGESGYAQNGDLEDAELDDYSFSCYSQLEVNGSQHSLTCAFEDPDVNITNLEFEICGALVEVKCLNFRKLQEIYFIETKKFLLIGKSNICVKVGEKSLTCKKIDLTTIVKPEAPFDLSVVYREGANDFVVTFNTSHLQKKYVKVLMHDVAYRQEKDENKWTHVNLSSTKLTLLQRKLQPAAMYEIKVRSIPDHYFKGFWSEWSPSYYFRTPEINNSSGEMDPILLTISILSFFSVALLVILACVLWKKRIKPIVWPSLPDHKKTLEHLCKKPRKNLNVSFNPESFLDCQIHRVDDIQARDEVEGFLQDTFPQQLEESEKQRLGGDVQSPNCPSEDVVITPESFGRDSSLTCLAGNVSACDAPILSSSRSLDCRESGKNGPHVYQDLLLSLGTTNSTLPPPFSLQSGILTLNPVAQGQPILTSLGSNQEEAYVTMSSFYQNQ

Target: Recombinant CD127 Fc Chimera (10975-H03H, Sino Biological) (human) (UniProt P16871)
Assay: ELISA, coated human CD127Fc, revealed with an anti-human kappa antibody

binding	Binder
binds	N13B2-h1 (humanized N13B2) (antibody, V domains shown) VH: QVQLVESGGGLVKPGGSLRLSCAVSGFTLSDYYMAWVRQAPGKGLEWVATISASGLRTYYPDSVKGRFTISRDDAKNSLYLQMNSLRAEDTAVYYCARPMSAHYGFNYFDYWGQGTLVTVSS VL: EIVMTQSPATLSVSPGERATLSCRTSEDIYNGLAWYQQKPGQAPRLLVYSANSLHIGIPARFSGSGSGTEYTLTISSLQSEDFAVYFCQQYYDYPLAFGGGTKVEIK
binds	N13B2-h2 (humanized N13B2) (antibody, V domains shown) VH: QVQLVESGGGLVKPGGSLRLSCAVSGFTLSDYYMAWIRQAPGKGLEWVSTISASGLRTYYPDSVKGRFTISRDNAKNSLYLQMNSLRAEDTAVYYCARPMSAHYGFNYFDYWGQGTLVTVSS VL: EIVMTQSPATLSVSPGERATLSCRTSEDIYNGLAWYQQKPGQAPRLLIYSANSLHIGIPARFSGSGSGTEFTLTISSLQSEDFAVYYCQQYYDYPLAFGGGTKVEIK
